Assay results taken from article PMC12706091.

Amino acid sequences for entries named in this document (tags omitted).
UniProt B5DF89: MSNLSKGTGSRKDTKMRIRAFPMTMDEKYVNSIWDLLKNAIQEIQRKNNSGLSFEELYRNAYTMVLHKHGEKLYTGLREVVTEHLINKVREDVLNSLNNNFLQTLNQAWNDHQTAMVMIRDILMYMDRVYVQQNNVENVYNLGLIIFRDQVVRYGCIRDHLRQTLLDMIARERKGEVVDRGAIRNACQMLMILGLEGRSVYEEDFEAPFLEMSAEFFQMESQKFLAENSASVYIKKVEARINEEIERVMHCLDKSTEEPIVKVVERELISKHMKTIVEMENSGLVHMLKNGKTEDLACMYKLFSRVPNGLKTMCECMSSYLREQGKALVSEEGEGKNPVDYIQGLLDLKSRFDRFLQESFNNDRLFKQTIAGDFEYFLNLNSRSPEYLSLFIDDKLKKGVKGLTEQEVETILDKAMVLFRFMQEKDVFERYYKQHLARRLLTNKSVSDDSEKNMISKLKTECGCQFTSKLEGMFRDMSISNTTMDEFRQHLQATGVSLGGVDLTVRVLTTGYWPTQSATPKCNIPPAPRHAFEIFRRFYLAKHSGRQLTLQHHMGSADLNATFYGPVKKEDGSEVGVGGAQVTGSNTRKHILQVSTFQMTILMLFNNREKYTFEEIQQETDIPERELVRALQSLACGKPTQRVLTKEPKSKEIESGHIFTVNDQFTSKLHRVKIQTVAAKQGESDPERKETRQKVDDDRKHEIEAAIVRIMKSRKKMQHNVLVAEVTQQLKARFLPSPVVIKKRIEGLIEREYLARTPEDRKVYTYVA

Tests used:
GST-ANXA7 = target: T1, GST-ANXA7 (UniProt Q6IRJ7); test: affinity purification with mass spectrometry; purified GST fusion (GST as control) added to P14 rat cortical lysate in RIPA buffer, 4 °C, captured on glutathione resin, NP40 wash buffer; LC-MS/MS, hits at log2FC >=1.2 and P <=0.05; only the target purified
T1 sequence: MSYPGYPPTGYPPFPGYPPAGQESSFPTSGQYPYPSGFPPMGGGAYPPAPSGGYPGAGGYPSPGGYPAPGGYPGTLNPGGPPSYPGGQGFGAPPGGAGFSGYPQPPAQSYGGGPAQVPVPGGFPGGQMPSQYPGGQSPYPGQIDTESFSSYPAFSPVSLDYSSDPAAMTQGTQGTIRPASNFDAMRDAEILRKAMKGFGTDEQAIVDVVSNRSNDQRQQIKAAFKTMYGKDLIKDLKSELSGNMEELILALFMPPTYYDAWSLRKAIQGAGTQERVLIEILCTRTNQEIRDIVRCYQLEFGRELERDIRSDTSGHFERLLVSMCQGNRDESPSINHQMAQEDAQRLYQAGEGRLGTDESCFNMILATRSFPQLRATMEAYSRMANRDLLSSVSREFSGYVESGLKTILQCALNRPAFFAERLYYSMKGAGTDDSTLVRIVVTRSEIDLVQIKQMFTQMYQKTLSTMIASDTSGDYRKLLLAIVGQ

GST-TIA1 = target: T2, GST-TIA1 (UniProt P31483); test: as above
T2 sequence: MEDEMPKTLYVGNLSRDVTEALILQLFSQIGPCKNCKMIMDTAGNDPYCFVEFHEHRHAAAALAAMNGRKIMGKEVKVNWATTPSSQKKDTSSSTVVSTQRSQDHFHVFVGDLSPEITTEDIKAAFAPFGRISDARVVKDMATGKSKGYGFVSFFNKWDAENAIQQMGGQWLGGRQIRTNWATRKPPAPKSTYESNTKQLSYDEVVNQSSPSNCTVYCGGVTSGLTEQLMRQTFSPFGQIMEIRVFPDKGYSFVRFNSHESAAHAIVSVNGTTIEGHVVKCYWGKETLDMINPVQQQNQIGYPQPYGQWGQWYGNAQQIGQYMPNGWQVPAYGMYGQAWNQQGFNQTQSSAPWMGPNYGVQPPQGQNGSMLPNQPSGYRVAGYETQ

Row | Molecule | binding (GST-ANXA7) | binding (GST-TIA1)
1 | T-cell intracellular antigen 1 (TIA1), endogenous | binds | –
2 | cytoplasmic dynein intermediate chain 1B (DIC1B), endogenous | binds | no binding
3 | CUL3, endogenous (from UniProt B5DF89 1-768) | – | binds
4 | Annexin A7 (ANXA7), endogenous (protein, UniProt Q6IRJ7 1-485) MSYPGYPPTGYPPFPGYPPAGQESSFPTSGQYPYPSGFPPMGGGAYPPAPSGGYPGAGGYPSPGGYPAPGGYPGTLNPGGPPSYPGGQGFGAPPGGAGFSGYPQPPAQSYGGGPAQVPVPGGFPGGQMPSQYPGGQSPYPGQIDTESFSSYPAFSPVSLDYSSDPAAMTQGTQGTIRPASNFDAMRDAEILRKAMKGFGTDEQAIVDVVSNRSNDQRQQIKAAFKTMYGKDLIKDLKSELSGNMEELILALFMPPTYYDAWSLRKAIQGAGTQERVLIEILCTRTNQEIRDIVRCYQLEFGRELERDIRSDTSGHFERLLVSMCQGNRDESPSINHQMAQEDAQRLYQAGEGRLGTDESCFNMILATRSFPQLRATMEAYSRMANRDLLSSVSREFSGYVESGLKTILQCALNRPAFFAERLYYSMKGAGTDDSTLVRIVVTRSEIDLVQIKQMFTQMYQKTLSTMIASDTSGDYRKLLLAIVGQ | – | binds

No constants are given. Whether binding was seen depends on the method and setting. In cells and extracts the contact can be indirect. A yes stands for co-enrichment or nearness to the bait. Other partners may have been found. For some assays here: A no says only that the protein was not detected with the bait. Where a sequence is shown, tags or fusion partners need not be part of it.
